Assay results reported in PubChem BioAssay AID1347431 (National Center for Advancing Translational Sciences (NCATS), 2020).
The whole screen tested about 1,200 compounds, of which fewer than 10 were called active. The call rests on the fitted dose curve; in most records, active means well fitted curve in the direction sought with a large enough effect; inconclusive means small, poorly fitted or top-dose-only effect, or another doubt; inactive means no such curve, though single readings can be large or run the other way. Some of the results follow.

Experiment: Confirmatory qHTS assay for inhibitors of Activation Induced Cytidine Deaminase (AID): UDG signals; further: 0% is about no effect
Details: UDG coupled enzyme activity counter-screen; at 115 µM (top of the series) unless noted
Summary of the method: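 UDG readout, a counterscreen: AID (1 uM, 4/3x) plus UDG (2 U/mL, 4/3x) preincubated 10 min with compound (7.32 nM - 114 uM final), then 4 h with DJC20/DJC23 substrates at room temperature; NaOH added, fluorescence read at 560/665 nm.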

| Structure (SMILES) | activity change, negative = inhibition |
| --- | --- |
| O=C(CN(c1cc(C(F)(F)F)ccc1Cl)S(=O)(=O)c1ccccc1)NCCc1ccccc1 | inactive: -12.4% |
| CCCCCn1c(CCCNC(=O)c2cccc(C)c2)nc2ccccc21 | inactive: -5.02% |
| CCc1ccccc1N(C)C(=O)c1sc2nc3n(c(=O)c2c1C)CCCCC3 | inactive: 1.65% |
| CC1CCCN(CCCNC(=O)c2cc3c(Cl)nc4ccccc4c3s2)C1 (stereo unspecified) | inactive: -15.9% |
| O=C(NCc1cccs1)c1ccc(CSc2nc3ccncc3n2Cc2ccccc2F)cc1 | inactive: -4.24% |
| Cc1ccc(Cl)cc1N1CCN(C(=O)c2ccc3c(c2)N(Cc2ccccc2)CCS3)CC1 | inactive: 10.8% |
| Cc1ccc(-c2nc(C(=O)N3CCN(c4ccccc4)CC3)c3n2CCCCC3)cc1 | inactive: -5.2% |
| Cc1ccc(CN(Cc2ccco2)C(=O)COc2cccc(C)c2C)o1 | inactive: -10.6% |
| CCN(CC)c1cc(C)c2cc(NC(=O)c3cc(OC)cc(OC)c3)ccc2n1 | inactive: -13.3% |
| COCc1cc(C)nc2sc3c(c12)NC(c1ccccc1C(=O)O)N(c1cccc(C(F)(F)F)c1)C3=O (stereo unspecified) | inactive: 4.69% |
| COc1ccc(-c2noc(CN(C(=O)c3ccccc3Cl)C(C)C)n2)cc1 | inactive: 3.14% |
| Cc1ccc(C(=O)c2cn(Cc3cc(C)ccc3C)c3nc(C)ccc3c2=O)cc1 | inactive: -8.53% |
| Cc1ccc(CN(Cc2ccco2)C(=O)c2ccccc2Br)o1 | inactive: 0.204% |
| Cc1ccc(-n2cnc3cc(C(=O)NCCC4=CCCCC4)ccc32)c(C)c1 | inactive: -3.85% |
| Cc1c(C(=O)Nc2ccc(F)cc2F)oc2c1-c1nn(Cc3c(F)cccc3Cl)cc1CC2 | inactive: 0.989% |
| Cc1ccc(CN(Cc2ccco2)C(=O)c2ccc(Cl)cc2Cl)cc1 | inactive: 4.19% |
| Cc1cccc(-c2nc(CCNC(=O)COc3ccccc3)cs2)c1 | inactive: -11.8% |
| O=C(COc1ccc(Cl)cc1)N(Cc1ccco1)Cc1ccco1 | inactive: -6.01% |
| CCOC(=O)c1c(C)oc2nc(C)nc(N3CCN(c4ccccc4F)CC3)c12 | inactive: -3.63% |
| Cc1[nH]n2c(=O)cc(-c3ccc(Cl)cc3)nc2c1-c1ccccc1 | inactive: 6.16% |
| CCc1ccc(NS(=O)(=O)c2ccc3oc(=O)c4ncn(CC)c4c3c2)cc1 | inactive: 11.9% |

| Structure (SMILES) | activity change, negative = inhibition |
| --- | --- |
| CCn1c(SCc2ccccc2C)nc(=O)c2c(C(=O)OC)cc(C3CC3)nc21 | inactive: 7.93% |
| CCN(c1cccc(C)c1)S(=O)(=O)c1ccc(-n2cccn2)cc1 | inactive: 7.06% |
| Cc1[nH]n(-c2ccccc2)c(=O)c1C(c1cc(Cl)ccc1O)c1c(C)[nH]n(-c2ccccc2)c1=O | inactive: 10.8% |
| CN(CCCNC(=O)c1cc2c(Cl)nc3ccccc3c2s1)Cc1ccccc1 | inactive: 4.21% |
| Cc1ccc(C2CCN(C(=O)c3cnn(-c4cccc(Cl)c4)c3C3CCN(C(=O)OC(C)(C)C)CC3)C2)cc1 (stereo unspecified) | inactive: -4.86% |
| COc1ccc(NC(=O)N(CCC(C)C)C(C)c2cccs2)c(OC)c1 (stereo unspecified) | inactive: 1.79% |
| COc1ccccc1Oc1nc2c(c(=O)n(C)c(=O)n2C)n1Cc1cccc(Br)c1 | inactive: -1.11% |
| Cc1ccc(Cl)cc1N1CCN(C(=O)c2cc(S(=O)(=O)N3CCC(C)CC3)cn2C)CC1 | inactive: -6% |
| Cc1ccc(C)c(C(=O)N2CCC(c3nc4c(nnn4Cc4ccccc4)c(=O)[nH]3)CC2)c1 | inactive: 7.61% |
| CCc1ccccc1NC(=O)[C@H](Cc1ccccc1)N1Cc2ccccc2C1=O | inactive: -5.74% |
| CC(C)CN(c1ccccc1)S(=O)(=O)c1nnc(NC(=O)c2ccco2)s1 | inactive: 3.9% |
| Cc1ccc(N2CCN(C(=O)c3nn(C)c4c3CS(=O)(=O)c3ccccc3-4)CC2C)cc1 (stereo unspecified) | inactive: 2.11% |
| COc1cccc(NC(=O)Cn2c(=O)n(Cc3ccccc3)c(=O)c3c4c(sc32)CN(C(C)=O)CC4)c1 | inactive: -1.92% |
| COc1ccc(Cn2cc(C(=O)c3ccc(OC)cc3)c(=O)c3cc4c(cc32)OCCO4)cc1 | inactive: 2.39% |
| Cc1nc2c(-c3ccccc3)c(C)nn2c(C)c1CCC(=O)N1CCN(c2ccccc2)CC1 | inactive: 2.79% |
| Cc1ncc(CO)c2c1Oc1nc(-c3ccccc3)nc(SCC(=O)N3CCCCC3)c1C2 | inactive: -7.24% |
| CC(C)c1ccc2c(c1)c(SC(C)(C)C)c(CC(C)(C)C(=O)O)n2Cc1ccc(Cl)cc1 | inactive: -8.67% |
| Cc1ccc(CCNC(=O)c2ccc3c(c2)N(Cc2ccccc2F)C(=O)c2ccccc2S3=O)cc1 (stereo unspecified) | inactive: -2.13% |
| COc1ccc(-c2cc3ncc(C(=O)c4cc([N+](=O)[O-])ccc4O)cn3n2)cc1 | inactive: 4.06% |
| O=C(c1ccc2c(c1)N(Cc1c(F)cccc1Cl)C(=O)c1ccccc1S2)N1CCCC1 | inactive: -3.45% |
| Cc1ccc(-n2cc(-c3ccccc3)nc2S(=O)(=O)CC(=O)Nc2ccc(F)cc2)cc1 | inactive: -6.08% |

| Structure (SMILES) | activity change, negative = inhibition |
| --- | --- |
| CCCn1c2ccccc2c2cnn(CC(=O)N(C)c3ccccc3CC)c(=O)c21 | inactive: -2.7% |
| CCc1cccc(-n2c(C)nc3c(cnn3-c3ccc(C)c(C)c3)c2=O)c1 | inactive: -3.24% |
| COc1cccc2sc(N(Cc3cccnc3)C(=O)Cc3ccccc3)nc12 | inactive: 10.2% |
| Cc1nc(Nc2ccc(Cl)cc2)cc(-c2ccccc2)n1 | inactive: -16.5% |
| COc1cccc(Cn2nnc3c(=O)[nH]c(C4CCN(C(=O)c5ccccc5Cl)CC4)nc32)c1 | inactive: 2.95% |
| O=C(NCCc1ccccc1Cl)c1sc2ncccc2c1-n1cccc1 | inactive: -9% |
| CN(C)CCNc1ncnc2c1cnn2-c1cccc(Cl)c1 | inactive: -9.32% |
| O=C(CSC1=Nc2ccccc2N=C(c2ccc(F)cc2)C1)Nc1cccc(C(F)(F)F)c1 | inactive: -4.58% |
| CCCN(CCC)CCCNC(=O)c1cn(CC)c2ccc(S(=O)(=O)N(C)C3CCCCC3)cc2c1=O | inactive: -14% |
| Cc1nc2c(C(=O)NCCC(C)C)cnn2c(C)c1Cc1c(F)cccc1Cl | inactive: -17.1% |
| CCCn1cc(S(=O)(=O)c2ccc(OC)cc2)c(=O)c2cc(F)c(N3CCCCCC3)cc21 | inactive: -2.2% |
| CCn1cc(S(=O)(=O)c2ccc(C)cc2C)c(=O)c2cc(F)c(N3CCCC3)cc21 | inactive: 0.779% |
| COC(=O)c1c(NC(=O)COc2ccc(OC)cc2)sc2c1CCC(C)C2 (stereo unspecified) | inactive: 6.36% |
| COc1cc(C(=O)Nc2ccc(OCc3cc(=O)n4cccc(C)c4n3)cc2)cc(OC)c1OC | inactive: 6.24% |
| CCCCn1cc(S(=O)(=O)c2ccccc2)c(=O)c2cc(F)c(N3CCC(C)CC3)cc21 | inactive: 2.03% |
| Cc1ccc(-c2nnc(Nc3ccc(O)cc3)c3ccccc23)cc1S(=O)(=O)NC(C)(C)CO | inactive: -6.8% |
| COc1ccc(Nc2cc(C)c3cc(NC(=O)COc4cccc(C)c4)ccc3n2)cc1 | inactive: -15.8% |
| CC(=O)N1CCc2c(sc3c2c(=O)n(Cc2ccccc2)c(=O)n3Cc2ccccc2Cl)C1 | inactive: -6.32% |
| Cc1ccc(Cl)cc1N1CCN(C(=O)COc2cc(=O)n(C)c3ccccc23)CC1 | inactive: 4.81% |
| COc1ccc(OC)c(NC(=O)CSc2nccn2-c2cc(C)cc(C)c2)c1 | inactive: -12.6% |
| CN(C)c1ccc(-c2nnc3n(Cc4ccccc4)c(=O)c4ccccc4n23)cc1 | inactive: -5.71% |

| Structure (SMILES) | activity change, negative = inhibition |
| --- | --- |
| Cc1nc2nc(SCC(=O)NCCc3ccc(Cl)cc3)nn2c(C)c1Cc1ccccc1Cl | inactive: -9.67% |
| COc1ccc(C(=O)c2cn(Cc3cccc(C)c3)c3cc4c(cc3c2=O)OCO4)cc1 | inactive: 0.0805% |
| CCCN(CCC)CC(O)Cn1cc(/C=C/C(=O)c2ccc(OC)cc2)c2ccccc21 (stereo unspecified) | inactive: -16.8% |
| Cc1cc(N(C)Cc2ccccc2)n2nc(-c3ccc(C(C)(C)C)cc3)nc2n1 | inactive: -13.6% |
| O=C(CSc1nc(-c2ccc(F)cc2)nc2c1Cc1ccccc1O2)Nc1cccc(C(=O)O)c1 | inactive: 5.5% |
| Cc1ccc2c(c1)c(=O)c(C(=O)c1ccccc1)cn2Cc1ccccc1F | inactive: -2.73% |
| Cc1ccc(C(C)C)c(OCC(=O)NCC2(N3CCOCC3)CCCCC2)c1 | inactive: -2.06% |
| CCOc1ccc(-c2n[nH]c3c2C(c2ccccc2OC)N(c2ccc(Br)cc2)C3=O)cc1 (stereo unspecified) | inactive: -1.1% |
| CCOC(=O)c1ccc(CSc2nnc3cc(C)c4ccccc4n23)cc1 | inactive: 3.64% |
| Cc1ccccc1Nc1c(-c2ccc(N3CCOCC3)cc2)nc2ccccn12 | inactive: -1.79% |
| CC(C)CCN(Cc1ccco1)C(=O)c1cc2c(s1)-c1ccccc1OC2 | inactive: -3.35% |
| CCc1nn(C(C)C(=O)N2CCN(c3cccc(C(F)(F)F)c3)CC2)c(=O)c2cc3occc3n12 (stereo unspecified) | inactive: 0.752% |
| Cc1ccc(-n2ncc(C(=O)NCCc3ccccc3)c2C2CCN(C(=O)OC(C)(C)C)CC2)c(C)c1 | inactive: -6.03% |
| CCc1ccc2c(c1)c(=O)c(S(=O)(=O)c1ccc(Cl)cc1)cn2CC | inactive: -0.548% |
| Cc1cc2c(C(C)C)c(O)c(O)c(C=O)c2c(O)c1-c1c(C)cc2c(C(C)C)c(O)c(O)c(C=O)c2c1O | inactive: -7.01% |
| Cc1cc(C)c(OCC(=O)N(Cc2ccco2)Cc2ccco2)c(C)c1 | inactive: 3.17% |
| CCOC(=O)C1=C(C)NC(=O)NC1c1cn(-c2ccccc2)nc1-c1ccc(OCC)cc1 (stereo unspecified) | inactive: -1.28% |
| Cc1ccc(S(=O)(=O)c2nnn3c2nc(N2CCC(C(N)=O)CC2)c2cc(Cl)ccc23)cc1C | inactive: -1.65% |

4 compounds out of the list, ordered by SMILES length, rising.

| Structure (SMILES) | activity change, negative = inhibition |
| --- | --- |
| Cc1ccc(C(C)C)c(OCC(=O)NCC2(N3CCOCC3)CCCCC2)c1 | inactive: -2.06% |
| CCOc1ccc(-c2n[nH]c3c2C(c2ccccc2OC)N(c2ccc(Br)cc2)C3=O)cc1 (stereo unspecified) | inactive: -1.1% |
| Cc1ccc(S(=O)(=O)c2nnn3c2nc(N2CCC(C(N)=O)CC2)c2cc(Cl)ccc23)cc1C | inactive: -1.65% |
| Cc1ccc(-n2ncc(C(=O)NCCc3ccccc3)c2C2CCN(C(=O)OC(C)(C)C)CC2)c(C)c1 | inactive: -6.03% |
